Screening data, single-dose tests

Protein sequences, listed by entry. Tags and fused reporters are not part of them.
UniProt P9WNZ1, whole entry: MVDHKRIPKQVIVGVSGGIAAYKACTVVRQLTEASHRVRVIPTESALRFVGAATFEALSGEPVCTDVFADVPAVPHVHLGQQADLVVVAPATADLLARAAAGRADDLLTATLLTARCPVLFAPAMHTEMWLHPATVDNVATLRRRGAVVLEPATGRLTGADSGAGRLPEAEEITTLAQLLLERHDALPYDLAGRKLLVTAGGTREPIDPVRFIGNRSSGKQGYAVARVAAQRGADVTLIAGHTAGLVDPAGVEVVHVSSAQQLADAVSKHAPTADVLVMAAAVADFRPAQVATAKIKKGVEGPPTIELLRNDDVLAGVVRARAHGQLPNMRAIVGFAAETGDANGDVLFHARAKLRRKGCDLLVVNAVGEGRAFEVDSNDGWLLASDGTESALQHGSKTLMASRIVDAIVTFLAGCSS

Each number is a percent effect as filed. The controls that fix the scale are not given in the record; negative values are as filed. Compounds were drawn at random from those tested, without regard to their results.

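Coenzyme A biosynthesis protein CoaBC, Mycobacterium tuberculosis (UniProt P9WNZ1). Enzyme assay of CoaBC with a phosphate dye (Biomol Green) read at 650 nm. Compounds at 30 µM. Higher reads as stronger inhibition, judged from the few compounds that gave an IC50. Most strong results did not repeat in a second test. Of about 67,000 compounds tested this way, about 40 (0.06%) reached 50% or more in at least one test.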

| # | structure | percent effect |
|---|---|---|
| 1 | `CC(C)(O)c1cc(CC2(NCC3CCCCC3)COC2)no1` | 5.519 |
| 2 | `COc1ccc(CNCC2CNc3ccnn3C2)cn1` (stereo unspecified) | 4 |
| 3 | `CN(Cc1cncnc1)[C@H]1CN(CC2CC2)[C@@H]2CCCO[C@@H]21` | 5.457 |
| 4 | `Cc1nc(C)n(C2CCCN(C(=O)c3cccnc3NC(C)C)C2)n1` (stereo unspecified) | 0.6479 |
| 5 | `COc1cccc2c1OCC(Cc1ccc(N)nc1C)C2` (stereo unspecified) | -3.704 |
| 6 | `CS(=O)(=O)c1cc(Cl)cnc1C1CCN(C(=O)C2CCCO2)CC1` (stereo unspecified) | -0.7177 |
| 7 | `CSCCC1c2nc[nH]c2CCN1Cc1[nH]c2ccc(F)cc2c1C` (stereo unspecified) | 0.2433 |
| 8 | `CCCN1CCN(Cc2nc3ccccc3[nH]2)[C@H]2CS(=O)(=O)C[C@H]21` | 0.4673 |
| 9 | `CC1CN(CC2CCCC2)CCN1c1ccc2nncn2n1` (stereo unspecified) | -23.37 |
| 10 | `Cc1nn(C)c(N(C)C)c1CNCc1cccc(OCCN(C)C)c1` | 1.33 |
| 11 | `CCc1ncc2c(n1)CN(CC(=O)N1CCc3sccc3C1)CC2` | 1.222 |
| 12 | `CS(=O)(=O)c1nccn1Cc1ccc(F)cc1Cl` | 8.058 |
| 13 | `CC(Nc1ccc2c(c1)CCC2)c1nc(C2CC2)no1` (stereo unspecified) | 13.39 |
| 14 | `O=C(NCc1ccco1)[C@H]1C[C@@H]2CCN(c3ccncn3)C[C@@H]2O1` | 2.411 |
| 15 | `O=C(Cc1ccc(-n2cccn2)cc1)N1CCCC(n2cccn2)C1` (stereo unspecified) | 10.51 |
| 16 | `OC(CNCCn1cccn1)COc1ccc(F)cc1` (stereo unspecified) | 6.303 |
| 17 | `CCOC(=O)C1CCN(C(=O)CN2CCCC2c2cc(C)no2)CC1` (stereo unspecified) | 7.911 |
| 18 | `CCN(Cc1ccc2c(c1)OCCO2)C(=O)NCc1csc(C)n1` | 6.695 |
| 19 | `Cc1nc(CN2C(=O)C[C@@H]3[C@@H]2CCN3C(=O)C2CCOCC2)cs1` | 10.54 |
| 20 | `CNC(=O)c1ccc(CNC(=O)c2cc(C(C)C)n(C)n2)cc1` | -0.9804 |
| 21 | `Cc1cnc(CN(C)C2CCN(CC(=O)N(C)c3nccs3)C2)o1` (stereo unspecified) | -4.113 |
| 22 | `CCOCc1ccccc1NC(=O)NC1CCN(C2CCCC2)C1` (stereo unspecified) | -7.042 |
| 23 | `NC(=O)c1cc2c(nc1Oc1ccccc1CN1CCCCC1)CCC2` | 16.39 |
| 24 | `COc1nn(C)cc1C(=O)NCC1(O)CCOCC1` | -1.908 |
| 25 | `CCc1nc2n(n1)CC(NCc1nc(-c3ccccn3)no1)CC2` (stereo unspecified) | 7.597 |
| 26 | `O=c1c2sccc2nc2n1CCN(Cc1ccc(F)c(F)c1)CC2` | 1.363 |
| 27 | `CC(C)CN1C[C@H]2C[C@H](C(=O)NC3CCC3)[C@@H](C1)O2` | 0.4878 |
| 28 | `Cc1nn(CC(C)C)c(N(C)C)c1CNCc1ccccc1CO` | 10.09 |
| 29 | `CCOC(=O)C1(NC(=O)CCNc2cc(C)ccc2OC)CCCCC1` | 6.561 |
| 30 | `Cc1nn(C)c(N(C)C)c1CNCc1ccc(Cn2cncn2)cc1` | 2.417 |
| 31 | `CNCC[C@H]1CC(C)(C)Oc2ccc(C)cc21` | 0.8434 |
| 32 | `COCCN1C(=O)CCC12CCN(C(=O)CC1CC1)CC2` | -5.562 |
| 33 | `O=C(NCc1ccon1)N1CCC(n2ccc(C(F)(F)F)n2)CC1` | 2.945 |
| 34 | `Cc1ccccc1C(=O)Nc1ccc(OC2CCN(C)CC2)cc1` | 3.257 |
| 35 | `Cc1ccc(-c2nc(CNc3ccc(C(N)=O)c(C)c3)cs2)o1` | 8.841 |
| 36 | `CCOC1COC2(CCN(S(=O)(=O)c3cccc(F)c3)CC2)C1` (stereo unspecified) | 0.9009 |
| 37 | `Cc1noc(C)c1S(=O)(=O)NCC(C)(O)c1ccc2c(c1)OCO2` (stereo unspecified) | -9.937 |
| 38 | `CCN(C)S(=O)(=O)NCC1CCCN(Cc2ccccc2F)C1` (stereo unspecified) | 3.929 |
| 39 | `O=C(COc1cccc(F)c1)N1C[C@@H](O)[C@H](N2CCCC2)C1` | -1.944 |
| 40 | `COCCN(CC1CCCN(C2Cc3ccccc3C2)C1)C(=O)COC` (stereo unspecified) | -8.554 |
| 41 | `COCCN1CCC2(CCCN(C(=O)c3ccoc3C)C2)C1=O` (stereo unspecified) | -0.8157 |
| 42 | `Cc1nc(C2CCN(CC(=O)NC3CC3)CC2)cc(N2CCOCC2)n1` | 1.19 |
| 43 | `CC1(C)[C@H](Cc2cc(CN3CCOCC3)on2)C[C@@H]1NC(=O)C1CCC1` | -1.29 |
| 44 | `CCCn1nnc(NCc2ccc(-c3ccc(Br)cc3)o2)n1` | -3.479 |
| 45 | `Cc1c(C(C)NC2CCN(C(C)C)CC2)cnn1-c1ccc(F)cc1F` (stereo unspecified) | -4.435 |
| 46 | `Cn1ncc2c(=O)[nH]c(CN3CCCc4cc(F)cc(F)c43)nc21` | 3.171 |
| 47 | `Cc1occc1C(=O)N1CCC2(CCN(Cc3cccs3)C2)CC1` | -2.447 |
| 48 | `CC1CCN(S(=O)(=O)NCC2CCOc3ccccc3C2)CC1` (stereo unspecified) | -1.818 |
| 49 | `Cc1ccccc1CN(Cc1ccccn1)C(=O)CNS(C)(=O)=O` | -1.088 |
| 50 | `CC(C)c1cc(C(=O)NCC2CCCN(c3ncccn3)C2)n(C)n1` (stereo unspecified) | -2.589 |
| 51 | `Cn1cc(C2CCCN2C(=O)c2cn(-c3ccccc3)nn2)cn1` (stereo unspecified) | 2.193 |
| 52 | `COCCN(C)C[C@H]1C[C@H](CO)CN(C(=O)c2ccn(C)c(=O)c2)C1` | 12.46 |
| 53 | `CCC[C@@H]1CN(C(=O)c2c(F)ccc(C)c2Cl)C[C@H]1C(=O)O` | -7.631 |
| 54 | `CS(=O)(=O)NC1CCN(C(=O)NCc2cc[nH]n2)CC1` | 5.236 |
| 55 | `COc1c(C)cnc(CNCC(C)C)c1C` | 3.002 |
| 56 | `Cc1ncc2c(n1)CCN(C(=O)Cc1c(C)noc1C)C2` | 14.19 |
| 57 | `c1ccc(CN2CCN3C[C@H](Oc4cccnc4)C[C@H]3C2)nc1` | 3.909 |
| 58 | `CC(Cc1ccccn1)N(C)Cc1ccc2c(c1)CCO2` (stereo unspecified) | 6.813 |
| 59 | `Cc1nccn1C1(C(=O)O)CCN(Cc2ccc3nsnc3c2)CC1` | 15 |
| 60 | `CC(=O)Nc1nc(CN2CCn3c(nnc3C3CC3)C2)cs1` | 8.094 |

Once more, the final 6:

{"structure": "COc1c(C)cnc(CNCC(C)C)c1C", "percent effect": 3.002}
{"structure": "Cc1ncc2c(n1)CCN(C(=O)Cc1c(C)noc1C)C2", "percent effect": 14.19}
{"structure": "c1ccc(CN2CCN3C[C@H](Oc4cccnc4)C[C@H]3C2)nc1", "percent effect": 3.909}
{"structure": "CC(Cc1ccccn1)N(C)Cc1ccc2c(c1)CCO2", "stereo": "stereo unspecified", "percent effect": 6.813}
{"structure": "Cc1nccn1C1(C(=O)O)CCN(Cc2ccc3nsnc3c2)CC1", "percent effect": 15}
{"structure": "CC(=O)Nc1nc(CN2CCn3c(nnc3C3CC3)C2)cs1", "percent effect": 8.094}

From ChEMBL document CHEMBL3988442, “University of Dundee, Small-Polar-MMV Screening Library” (2021).